# Source: PubChem BioAssay AID1671190 (National Center for Advancing Translational Sciences (NCATS), 2021)
# Chains of the proteins cited; added tags and fusions are not shown. Lines headed by an entry give the natural chain unless they say otherwise; changes in a name come on top.
# UniProt P18054: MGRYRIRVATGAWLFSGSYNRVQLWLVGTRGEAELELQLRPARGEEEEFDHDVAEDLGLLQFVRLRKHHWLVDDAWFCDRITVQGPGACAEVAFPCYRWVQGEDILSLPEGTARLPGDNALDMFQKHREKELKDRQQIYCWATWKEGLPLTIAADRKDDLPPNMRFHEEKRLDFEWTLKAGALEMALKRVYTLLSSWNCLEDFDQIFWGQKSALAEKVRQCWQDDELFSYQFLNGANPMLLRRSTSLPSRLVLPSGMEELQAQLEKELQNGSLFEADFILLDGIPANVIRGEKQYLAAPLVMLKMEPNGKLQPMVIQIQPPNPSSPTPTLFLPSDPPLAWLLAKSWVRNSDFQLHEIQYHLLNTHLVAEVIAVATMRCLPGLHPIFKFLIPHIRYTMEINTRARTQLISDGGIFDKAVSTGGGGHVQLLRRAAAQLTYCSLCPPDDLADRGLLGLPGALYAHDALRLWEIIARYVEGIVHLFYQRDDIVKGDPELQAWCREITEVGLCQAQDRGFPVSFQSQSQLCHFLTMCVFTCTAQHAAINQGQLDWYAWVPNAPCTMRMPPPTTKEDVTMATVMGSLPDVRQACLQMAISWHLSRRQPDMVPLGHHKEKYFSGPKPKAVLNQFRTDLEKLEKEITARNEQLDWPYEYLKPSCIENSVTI
# The whole screen tested about 580,000 compounds, of which about 6,100 (1.1%) were called active. Inconclusive results, whose numbers are uncertain, are shown with a selection of clear calls. The call rests on the fitted dose curve; in most records, active means well fitted inhibition curve with a large enough effect; inconclusive means small, poorly fitted or top-dose-only effect, or another doubt; inactive means no such curve, though single readings can be large or run the other way. A potency beside an inconclusive call is a rough fit, not a confirmed value. Where a structure was tested more than once in an assay, its records may differ in their call.
# Target: Polyunsaturated fatty acid lipoxygenase ALOX12 (Homo sapiens) (UniProt P18054)
# Experiment: Primary qHTS assay for inhibitors of human arachidonate 12S-lipoxygenase (ALOX12): Round 2
# Conditions: purified 12hLO, xylenol orange hydroperoxide absorbance; series mostly up to 108 µM
# In short: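 Hydroperoxide product was detected by ferrous iron/xylenol orange as the 573 to 405 nm absorbance ratio. Arachidonic acid at 40 uM (final) was turned over for 30 min at room temperature by 150 nM human 12hLO, pH 7.0 Hepes buffer, after 15 min compound preincubation.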
# Potency means the concentration at half of the fitted maximal effect.
row,Compound,Potency
1,O=c1c(Cc2c(F)cccc2Cl)c(O)ccn1CCCn1ccnc1,"inconclusive: 5.62 µM [inhibitor, full curve, poor fit]"
2,CCOC(=O)c1ccc(N=c2sc(C(=O)OC)cc(=O)n2-c2ccc(C(=O)OCC)cc2)cc1,inactive
3,Cc1nn(-c2ccccc2)c2sc(C(=O)OC3CCOC3=O)cc12 (stereo unspecified),inactive
4,CSCC[C@@H](N)C(=O)O,"inconclusive: 0.631 µM [inhibitor, full curve, poor fit]"
5,CC(C)OC(=O)C(C(=O)OC(C)C)=C1SC=CS1,"inconclusive: 48.5 µM [inhibitor, single point]"
6,Cc1cc(N2CCN(S(=O)(=O)c3ccccc3F)CC2)nc(C(C)C)n1,"inconclusive: 44.7 µM [inhibitor, partial curve]"
7,COc1ccc2c(c1)c1c(c(=O)n(Cc3ccccc3)c(=O)n1CC(=O)NCc1ccccc1)n2C,inactive
8,O=C(Nc1cc(-c2ccc(Br)cc2)no1)c1ccco1,"inconclusive: 44.7 µM [inhibitor, partial curve, poor fit]"
9,CCOC(=O)N1CCN(c2ccc(C(=O)CC)cc2F)CC1,inactive
10,CCCCCc1cc(OC)cc2c1C(=O)OC(C)(C)O2,inactive
11,CSc1ccccc1NC(=O)CN(C)CC(=O)Nc1ccccc1C(F)(F)F,inactive
12,CC(C)Sc1nc2c(c(=O)[nH]1)C(c1cccs1)C1=C(CC(C)(C)CC1=O)N2 (stereo unspecified),"inconclusive: 89.1 µM [inhibitor, partial curve, poor fit]"
13,CCOCCCNC(=O)c1ccc(-n2c(-c3ccccc3)cc3c2CCCCC3)cc1,inactive
14,CN(C)CCN(Cc1ccco1)C(=O)c1oc2ccccc2c1NC(=O)c1cccc(F)c1,inactive
15,CC(C)C(NC(=O)c1n[nH]c(=O)c2ccccc12)c1ccc(C(C)(C)C)cc1 (stereo unspecified),inactive
16,COc1ccc2o/c(=N\O)c(C(=O)Nc3ccccc3OC)cc2c1,"inconclusive: 2.82 µM [inhibitor, full curve, poor fit]"
17,COc1cc(NC(=O)N2CCOc3ccc(Cl)cc32)cc(OC)c1OC,inactive
18,CCOC(=O)C1CCCN(C(=O)/C(=C/c2ccco2)NC(=O)c2ccccc2)C1 (stereo unspecified),inactive
19,COc1ccc(N2CCN(C(=O)c3cc4c(-c5cccc(OC)c5)nn(C)c4s3)CC2)cc1,inactive
20,Cn1c(=O)n(Cc2ccccc2)c(=O)c2c1nc(N1CCCC1)n2Cc1ccccc1,"inconclusive: 89.1 µM [inhibitor, partial curve, poor fit]"
21,CN(CC(=O)Nc1ccccc1Cl)C1CCCCC1,"inconclusive: 22.4 µM [inhibitor, single point]"
22,COc1cc(CO)ccc1OCC(=O)Nc1ccc(Br)cc1,"inconclusive: 100 µM [inhibitor, partial curve, poor fit]"
23,CCOC(=O)c1ccc(NC(=O)Cn2nnc3ccccc32)cc1,inactive

row,Compound,Potency
1,O=C(Nc1cccc(C(F)(F)F)c1)c1cccc(NS(=O)(=O)c2ccc(O)c(C(=O)O)c2)c1,inactive
2,Cc1cccc(Nc2nc(NC3CCCCCC3)nc3c2cnn3-c2ccccc2)c1,"inconclusive: 89.1 µM [inhibitor, single point]"
3,O=C(O)CCC(=O)N[C@H]1CO[C@H]2[C@@H]1OC[C@@H]2n1nnnc1Oc1ccc2c(c1)OCO2,inactive
4,Cc1ccccc1OCC(=O)OC(C(=O)c1ccccc1)c1ccccc1 (stereo unspecified),inactive
5,CC(=O)Oc1ccc(/C=C2\C=C(c3ccc(C)cc3)OC2=O)cc1,"inconclusive: 56.2 µM [inhibitor, partial curve, poor fit]"
6,C#CCNC(=O)C1CN(c2cccc(Cl)c2)C(=O)N1 (stereo unspecified),active: 50.1 µM
7,CCOc1ccc(CC(=O)N2CCc3cc(OC)c(OC)cc3C2COc2ccc3c(C)cc(=O)oc3c2)cc1 (stereo unspecified),"inconclusive: 126 µM [inhibitor, partial curve, poor fit]"
8,CC(NC(=O)C1CCCC1)c1ccc(Cl)cc1Cl (stereo unspecified),inactive
9,CNC(=O)Nc1ccc(C)n(CC(=O)NCc2cccc(Cl)c2)c1=O,inactive
10,COc1ccc(-c2c3c(=O)n(C)c(=O)n(C)c3c3n2CCOC3c2coc3ccccc3c2=O)cc1 (stereo unspecified),"inconclusive: 11.2 µM [inhibitor, partial curve, poor fit]"
11,COC(=O)c1ccc(Cn2ccc(=O)[nH]c2=O)cc1,inactive
12,CCOc1ccc(NC(=O)CCc2c(C)nc3cc(-c4ccc(Cl)cc4)nn3c2C)cc1,inactive
13,O=C(Nc1ccc(Cl)c(C(F)(F)F)c1)c1ccc(Cl)cc1Cl,"inconclusive: 89.1 µM [inhibitor, single point]"
14,COC(=O)CNC(=O)c1cc2sccc2n1Cc1ccccc1,inactive
15,COC(=O)c1sccc1NN1C(=O)c2ccccc2C1=O,"inconclusive: 100 µM [inhibitor, single point]"
16,CCN(CC)S(=O)(=O)c1ccc2c(c1)N(CC(=O)NCCCN1CCN(c3cc(Cl)ccc3C)CC1)C(=O)CO2,"inconclusive: 89.1 µM [inhibitor, partial curve, poor fit]"
17,O=c1c(N=Nc2ccc(O)cc2)c(-c2ccccc2)[nH]n1-c1ccc([N+](=O)[O-])cc1,"inconclusive: 4.47 µM [inhibitor, full curve, poor fit]"
18,O=C(Cc1cnn(-c2ccccc2)c1)c1ccc(O)c(O)c1O,"inconclusive: 56.2 µM [inhibitor, partial curve, poor fit]"
19,Cc1cc(C)cc(OCc2cc(=O)n3nc(C)sc3n2)c1,"inconclusive: 7.08 µM [inhibitor, full curve, poor fit]"
20,Cc1c(-c2n[nH]c(=S)n2-c2ccc(Br)cc2)nnn1-c1ccc(Cl)cc1,"inconclusive: 39.8 µM [inhibitor, partial curve]"
21,CC(C)c1ccc(NC(=O)c2c(F)cccc2Cl)cc1,"inconclusive: 70.8 µM [inhibitor, partial curve, poor fit]"
22,O=C(Nc1cccc(Cl)c1)C1CCCN(c2ncnc3c2nc2n3CCCCC2)C1 (stereo unspecified),"inconclusive: 44.7 µM [inhibitor, partial curve, poor fit]"
23,CCOC(=O)C1CCN(CC(O)COc2ccc(S(=O)(=O)N3CCCC3)cc2[N+](=O)[O-])CC1 (stereo unspecified),"inconclusive: 79.4 µM [inhibitor, single point]"

# In the list so far, two contain an aryl thioether with sulfur outside any ring.
row,Compound,Potency
11,CSc1ccccc1NC(=O)CN(C)CC(=O)Nc1ccccc1C(F)(F)F,inactive
12,CC(C)Sc1nc2c(c(=O)[nH]1)C(c1cccs1)C1=C(CC(C)(C)CC1=O)N2 (stereo unspecified),"inconclusive: 89.1 µM [inhibitor, partial curve, poor fit]"
